According to PMC6927325:
These are yes or no findings as the source states them, for the method shown. In cells and extracts the contact can be indirect. Some binding calls cover weakened binding; strength is not graded here. One block for each binder: values may come before it.

Chains of the proteins cited; added tags and fusions are not shown. Residues count along the entry.
UniProt Q9UM73, residues 19-1620: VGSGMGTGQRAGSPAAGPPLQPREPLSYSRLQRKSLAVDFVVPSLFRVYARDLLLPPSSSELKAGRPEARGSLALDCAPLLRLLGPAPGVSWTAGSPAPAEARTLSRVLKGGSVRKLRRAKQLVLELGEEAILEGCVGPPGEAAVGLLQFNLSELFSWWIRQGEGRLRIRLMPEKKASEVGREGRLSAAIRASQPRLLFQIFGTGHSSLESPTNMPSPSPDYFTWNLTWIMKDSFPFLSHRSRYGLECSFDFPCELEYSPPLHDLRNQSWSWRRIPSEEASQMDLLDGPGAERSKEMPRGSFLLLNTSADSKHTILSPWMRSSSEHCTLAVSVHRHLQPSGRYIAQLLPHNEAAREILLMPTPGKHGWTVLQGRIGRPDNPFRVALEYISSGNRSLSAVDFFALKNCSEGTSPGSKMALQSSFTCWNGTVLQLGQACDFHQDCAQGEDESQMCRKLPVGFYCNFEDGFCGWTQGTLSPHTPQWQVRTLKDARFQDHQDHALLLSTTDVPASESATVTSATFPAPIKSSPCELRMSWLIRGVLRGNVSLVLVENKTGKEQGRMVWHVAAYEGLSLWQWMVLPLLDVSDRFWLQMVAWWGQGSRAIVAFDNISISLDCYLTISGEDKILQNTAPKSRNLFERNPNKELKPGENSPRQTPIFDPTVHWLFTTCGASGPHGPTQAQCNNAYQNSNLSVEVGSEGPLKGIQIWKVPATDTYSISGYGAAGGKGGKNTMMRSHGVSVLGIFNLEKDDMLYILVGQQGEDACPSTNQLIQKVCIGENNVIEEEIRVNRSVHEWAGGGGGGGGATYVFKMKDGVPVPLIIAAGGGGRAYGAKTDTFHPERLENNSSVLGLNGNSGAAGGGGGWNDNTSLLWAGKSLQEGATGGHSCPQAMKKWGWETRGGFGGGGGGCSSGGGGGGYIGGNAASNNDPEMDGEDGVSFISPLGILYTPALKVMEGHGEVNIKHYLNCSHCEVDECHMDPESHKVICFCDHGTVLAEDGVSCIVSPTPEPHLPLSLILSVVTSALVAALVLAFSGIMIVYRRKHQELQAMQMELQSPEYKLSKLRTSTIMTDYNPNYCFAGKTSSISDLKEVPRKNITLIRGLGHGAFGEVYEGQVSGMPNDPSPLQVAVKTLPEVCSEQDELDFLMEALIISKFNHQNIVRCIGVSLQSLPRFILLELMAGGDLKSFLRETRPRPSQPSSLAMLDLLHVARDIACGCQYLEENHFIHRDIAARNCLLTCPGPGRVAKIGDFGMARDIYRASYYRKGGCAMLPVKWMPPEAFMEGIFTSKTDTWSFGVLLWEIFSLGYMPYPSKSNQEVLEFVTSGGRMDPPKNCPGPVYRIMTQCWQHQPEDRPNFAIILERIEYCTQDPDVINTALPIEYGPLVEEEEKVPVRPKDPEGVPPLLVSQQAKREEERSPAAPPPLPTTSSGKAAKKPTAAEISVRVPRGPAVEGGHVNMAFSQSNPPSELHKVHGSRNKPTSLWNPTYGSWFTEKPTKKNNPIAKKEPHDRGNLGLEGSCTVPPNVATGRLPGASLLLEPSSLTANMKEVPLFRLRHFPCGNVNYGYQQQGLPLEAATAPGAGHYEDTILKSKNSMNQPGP

Legend:
[1] = molecular target: anaplastic lymphoma kinase (ALK), wild type, endogenous in IMR-5 cells (human (endogenous in IMR-5)) (UniProt Q9UM73); assay: co-IP; endogenous NUMB and ALK from IMR-5 neuroblastoma cells
[2] = molecular target: wild-type ALK ectopically expressed in HEK293 cells (HEK293/ALK stable cell line) (UniProt Q9UM73); assay: co-IP; endogenous NUMB with ectopically expressed ALK in the HEK293/ALK stable cell line

binding [1]: binds
B1: NUMB (endogenous, IMR-5 neuroblastoma cells) (protein, UniProt P49757 1-651)
chain: MNKLRQSFRRKKDVYVPEASRPHQWQTDEEGVRTGKCSFPVKYLGHVEVDESRGMHICEDAVKRLKAERKFFKGFFGKTGKKAVKAVLWVSADGLRVVDEKTKDLIVDQTIEKVSFCAPDRNFDRAFSYICRDGTTRRWICHCFMAVKDTGERLSHAVGCAFAACLERKQKREKECGVTATFDASRTTFTREGSFRVTTATEQAEREEIMKQMQDAKKAETDKIVVGSSVAPGNTAPSPSSPTSPTSDATTSLEMNNPHAIPRRHAPIEQLARQGSFRGFPALSQKMSPFKRQLSLRINELPSTMQRKTDFPIKNAVPEVEGEAESISSLCSQITNAFSTPEDPFSSAPMTKPVTVVAPQSPTFQANGTDSAFHVLAKPAHTALAPVAMPVRETNPWAHAPDAANKEIAATCSGTEWGQSSGAASPGLFQAGHRRTPSEADRWLEEVSKSVRAQQPQASAAPLQPVLQPPPPTAISQPASPFQGNAFLTSQPVPVGVVPALQPAFVPAQSYPVANGMPYPAPNVPVVGITPSQMVANVFGTAGHPQAAHPHQSPSLVRQQTFPHYEASSATTSPFFKPPAQHLNGSAAFNGVDDGRLASADRHTEVPTGTCPVDPFEAQWAALENKSKQRTNPSPTNPFSSDLQKTFEIEL

binding [2]: binds
B2: NUMB (endogenous, HEK293/ALK cells) (protein, UniProt P49757 1-651)
chain: B1 chain
